Values from PubChem BioAssay AID1259425 (University of Nebraska Medical Center, 2018).

Screen: 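Find knockdowns that reproduce the gene expression pattern seen when KSR1 is lost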 (primary screen)
Cells: HCT116 human colon cancer cells
Reagent: siRNA pool against human genes, 50 nM siRNA
Detection: 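After 50 nM siRNA pool, branched-DNA assay measures six marker transcripts per well, minus blank, normalised to the geometric mean of two housekeeping transcripts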
Scale: BNIP3L mRNA: higher = more BNIP3L transcript after knockdown; NDRG1 mRNA: higher = more NDRG1 transcript after knockdown; BNIP3 mRNA: higher = more BNIP3 transcript after knockdown; ALDOC mRNA: higher = more ALDOC transcript after knockdown; ACSL5 mRNA: higher = more ACSL5 transcript after knockdown
In all, the deposit lists about 14,000 reagents; below is an unselected part. The numbers tell different reagents against one gene apart. Not given: the time to read-out.

| gene knocked down | reagent no. | BNIP3L mRNA, set 1 | NDRG1 mRNA, set 1 | BNIP3 mRNA, set 1 | ALDOC mRNA, set 1 | ACSL5 mRNA, set 1 |
| --- | --- | --- | --- | --- | --- | --- |
| GCNA (GeneID 93953) | 1 | 0.134 | 0.501 | 0.223 | 0.0104 | 0.222 |
| NFYB (GeneID 4801) | 1 | 0.0885 | 0.555 | 0.246 | 0.00239 | 0.248 |
| PHF2 (GeneID 5253) | 1 | 0.069 | 0.0774 | 0.335 | 0.0083 | 0.0815 |
| B3GNT5 (GeneID 84002) | 1 | 0.257 | 0.336 | 0.386 | 0.0993 | 0.297 |
| FNDC11 (GeneID 79025) | 1 | 0.228 | 0.251 | 0.367 | 0.0549 | 0.313 |
| FDX1 (GeneID 2230) | 1 | 0.153 | 0.11 | 0.38 | 0.0362 | 0.093 |
| ZBTB7B (GeneID 51043) | 1 | 0.0992 | 0.104 | 0.299 | -0.000846 | 0.124 |
| VPS4B (GeneID 9525) | 1 | 0.119 | 0.188 | 0.327 | 0.0371 | 0.205 |
| PCGF2 (GeneID 7703) | 1 | 0.0615 | 0.081 | 0.24 | 0.0239 | 0.13 |
| ABHD17B (GeneID 51104) | 1 | 0.249 | 0.339 | 0.73 | 0.0575 | 0.21 |
| DNAL1 (GeneID 83544) | 1 | 0.0815 | 0.0945 | 0.401 | 0.0445 | 0.157 |
| RFXANK (GeneID 8625) | 1 | 0.155 | 0.0822 | 0.32 | 0.0133 | 0.143 |
| VCPKMT (GeneID 79609) | 1 | 0.113 | 0.198 | 0.36 | 0.0468 | 0.269 |
| LUC7L3 (GeneID 51747) | 1 | 0.205 | 0.497 | 0.399 | 0.0197 | 0.115 |
| LUC7L3 (GeneID 51747) | 2 | 0.0911 | 0.152 | 0.228 | 0.0139 | 0.141 |
| NPC2 (GeneID 10577) | 1 | 0.159 | 0.413 | 0.205 | 0.0384 | 0.141 |
| WDR19 (GeneID 57728) | 1 | 0.0933 | 0.161 | 0.286 | 0.0224 | 0.186 |
| GSC2 (GeneID 2928) | 1 | 0.184 | 0.105 | 0.439 | 0.012 | 0.173 |
| RTN4 (GeneID 57142) | 1 | 0.0658 | 0.109 | 0.163 | 0.0243 | 0.238 |
| FUNDC2 (GeneID 65991) | 1 | 0.0775 | 0.124 | 0.398 | 0.0097 | 0.121 |
| LMOD3 (GeneID 56203) | 1 | 0.162 | 0.12 | 0.251 | 0.101 | 0.163 |
| MTREX (GeneID 23517) | 1 | 0.0639 | 0.365 | 0.324 | 0.0172 | 0.171 |
| RARS1 (GeneID 5917) | 1 | 0.154 | 0.66 | 0.331 | 0.0182 | 0.446 |
| CTNNA1 (GeneID 1495) | 1 | 0.124 | 0.129 | 0.309 | 0.0266 | 0.096 |
| KLRD1 (GeneID 3824) | 1 | 0.151 | 0.0875 | 0.289 | 0.0562 | 0.221 |
| C19orf44 (GeneID 84167) | 1 | 0.331 | 0.254 | 0.292 | 0.0906 | 0.72 |
| EIF5A2 (GeneID 56648) | 1 | 0.107 | 0.137 | 0.336 | 0.0289 | 0.357 |
| B2M (GeneID 567) | 1 | 0.0717 | 0.168 | 0.382 | 0.0403 | 0.111 |
| GPC5 (GeneID 2262) | 1 | 0.0786 | 0.215 | 0.313 | 0.0341 | 0.0853 |
| NOTCH3 (GeneID 4854) | 1 | 0.103 | 0.159 | 0.295 | 0.0226 | 0.0976 |
| GDF10 (GeneID 2662) | 1 | 0.0568 | 0.0879 | 0.196 | 0.0205 | 0.103 |
| RAB39A (GeneID 54734) | 1 | 0.21 | 0.235 | 0.368 | 0.0296 | 0.184 |
| RABGGTB (GeneID 5876) | 1 | 0.201 | 1.85 | 0.535 | 0.089 | 0.787 |
| GPR25 (GeneID 2848) | 1 | 0.187 | 0.283 | 0.306 | 0.0384 | 0.189 |

Sorted by “ALDOC mRNA, set 1” (low to high): 5 of the entries above.
| gene knocked down | reagent no. | BNIP3L mRNA, set 1 | NDRG1 mRNA, set 1 | BNIP3 mRNA, set 1 | ALDOC mRNA, set 1 | ACSL5 mRNA, set 1 |
| --- | --- | --- | --- | --- | --- | --- |
| ZBTB7B (GeneID 51043) | 1 | 0.0992 | 0.104 | 0.299 | -0.000846 | 0.124 |
| PCGF2 (GeneID 7703) | 1 | 0.0615 | 0.081 | 0.24 | 0.0239 | 0.13 |
| VPS4B (GeneID 9525) | 1 | 0.119 | 0.188 | 0.327 | 0.0371 | 0.205 |
| DNAL1 (GeneID 83544) | 1 | 0.0815 | 0.0945 | 0.401 | 0.0445 | 0.157 |
| ABHD17B (GeneID 51104) | 1 | 0.249 | 0.339 | 0.73 | 0.0575 | 0.21 |
